Experimental data taken from PubChem BioAssay AID248 (DTP/NCI, 2004).
The list does not hold the whole screen: it is rich in T/C values a quarter to a half above the control, in often repeated tests (any T/C) and in doses without a T/C. Other doses and runs of a compound stand elsewhere. T/C gives the treated animals as a percentage of the vehicle group. Some entries give survivors of the animals treated and no T/C: the source files T/C as zero there, which appears to mark a toxic dose or a test without result, not a measured value. Some doses without a T/C left all or most animals alive at the check, yet need not have been tolerated: survival well below the control is almost never listed, so the zero probably covers shortened survival too. Counts of survivors are from the toxicity check (mostly the fifth day) where no day follows; animals may have died later. Schedule codes are those of the source, taken here to give the interval after Q, in days (D) or hours (H), and the number of doses after X. Some schedules carry Z or #; the key to these is not given. For survival time, the PubChem record calls one and a half times the control and up active, and a quarter to a half above the control has no call in these data; cut-offs in other NCI protocols can differ. Some T/C values are followed by the survivors on the day toxicity was checked, most often the fifth; without a count, all were alive then.

Tested on: L1210 leukemia ip in BDF1 mice, survival T/C
Assay: NCI In Vivo Anticancer Drug Screen. Data for tumor model L1210 Leukemia (intraperitoneal) in B6D2F1 (BDF1) mice
Settings: higher T/C = longer survival
[1] = T/C endpoint: mean survival time, dose: 400.0 mg/kg/injection, schedule: Q01DX009 (ip), vehicle: saline with Tween-80
[2] = T/C endpoint: mean survival time, dose: 400.0 mg/kg/injection, schedule: Q04DX003 (ip), vehicle: saline
[3] = T/C endpoint: mean survival time, dose: 50.0 mg/kg/injection, schedule: Q01DX009 (ip), vehicle: saline with Tween-80

`NC(CSS(=O)(=O)O)=NCCC1=NCCN1` was tested, and the T/C (T/C endpoint: mean survival time, dose: 100.0 mg/kg/injection, schedule: Q04DX002 (ip), vehicle: saline) was 129 % of control.

With `O=C1NC(=O)C(c2ccc(O)cc2)N1` (stereo not given) the survivor count [1] was 5 of 5.

With `C/C=N/N(C)C=O` the survivor count [2] was 1 of 4.

In the case of `COc1cc(/C=N/N2C(=O)CSC2=S)ccc1OCc1ccccc1`, the survivor count [1] is reported as 6 of 6.

In the case of `O=C(O)c1cc(Br)cc(Cl)c1Cl`, the survivor count (T/C endpoint: mean survival time, dose: 400.0 mg/kg/injection, schedule: Q04DX002 (ip), vehicle: Klucel (hydroxypropylcellulose) (HPC)) is reported as 3 of 3.

With `COC1C(c2ccccc2)NC(=O)C(Br)(C#N)C1c1ccccc1` (stereo not given) the survivor count [3] was 3 of 3, the survivor count (T/C endpoint: mean survival time, dose: 100.0 mg/kg/injection, schedule: Q01DX009 (ip), vehicle: saline with Tween-80) was 3 of 3 and the survivor count (T/C endpoint: mean survival time, dose: 200.0 mg/kg/injection, schedule: Q01DX009 (ip), vehicle: saline with Tween-80) was 3 of 3.

For `O=C(/C=C\c1ccc(C(=O)Nc2ccc(C3=NCCCN3)cc2)cc1)Nc1ccc(C2=NCCCN2)cc1`, the T/C (T/C endpoint: mean survival time, dose: 0.5 mg/kg/injection, schedule: Q01DX Z (ip), vehicle: water) was 138 % of control, the T/C (T/C endpoint: mean survival time, dose: 2.5 mg/kg/injection, schedule: Q01DX Z (ip), vehicle: water) was 147 % of control and the T/C (T/C endpoint: mean survival time, dose: 3.75 mg/kg/injection, schedule: Q01DX Z (ip), vehicle: water) was 143 % of control. The T/C (T/C endpoint: mean survival time, dose: 5.0 mg/kg/injection, schedule: Q01DX Z (ip), vehicle: water) was 131 % of control, the T/C (T/C endpoint: mean survival time, dose: 5.25 mg/kg/injection, schedule: Q01DX Z (ip), vehicle: water) was 143 % of control and the survivor count (T/C endpoint: mean survival time, dose: 21.0 mg/kg/injection, schedule: Q01DX Z (ip), vehicle: water) was 1 of 6. For the same molecule, the survivor count (T/C endpoint: mean survival time, dose: 42.0 mg/kg/injection, schedule: Q01DX Z (ip), vehicle: water) was 0 of 6 and the T/C (T/C endpoint: mean survival time, dose: 400.0 mg/kg/injection, schedule: Q01DX Z (oral), vehicle: water) was 145 % of control [4 of 6 alive].

With `CC1(C)OC(=O)CC(=O)O1` the survivor count [1] was 0 of 6.

In the case of `CCOC(=O)CNC(=O)Nc1ccc(C(=O)O)cc1`, the survivor count [1] is reported as 3 of 6.

In the case of `COc1ccc(CCl)cc1C(=O)O`, the survivor count (T/C endpoint: mean survival time, dose: 300.0 mg/kg/injection, schedule: Q01DX001 (ip), vehicle: saline) is reported as 4 of 6.

For `CCCCCCCCN(N)C12CC3CC(CC(C3)C1)C2`, the survivor count (T/C endpoint: mean survival time, dose: 100.0 mg/kg/injection, schedule: Q04DX003 (ip), vehicle: saline) was 6 of 6, the survivor count (T/C endpoint: mean survival time, dose: 200.0 mg/kg/injection, schedule: Q04DX003 (ip), vehicle: saline) was 0 of 6 and the survivor count [2] was 0 of 6.

`CC(=O)NC(CCc1ccc(Cl)c(Cl)c1)c1cccc(O)c(=O)c1` (stereo not given) was tested, and the survivor count (T/C endpoint: median survival time, dose: 200.0 mg/kg/injection, schedule: Q01DX009 (ip), vehicle: Klucel (hydroxypropylcellulose) (HPC)) was 1 of 6 and the survivor count (T/C endpoint: median survival time, dose: 400.0 mg/kg/injection, schedule: Q01DX009 (ip), vehicle: Klucel (hydroxypropylcellulose) (HPC)) was 0 of 6.

`CN(C)CSc1ccccc1` was tested, and the survivor count (T/C endpoint: mean survival time, dose: 100.0 mg/kg/injection, schedule: Q01DX001 (ip), vehicle: saline) was 1 of 4, the survivor count (T/C endpoint: mean survival time, dose: 200.0 mg/kg/injection, schedule: Q01DX001 (ip), vehicle: saline) was 0 of 4 and the survivor count (T/C endpoint: mean survival time, dose: 400.0 mg/kg/injection, schedule: Q01DX001 (ip), vehicle: saline) was 0 of 4.

In the case of `CN1CSC(=S)N(C)C1`, the survivor count (T/C endpoint: mean survival time, dose: 200.0 mg/kg/injection, schedule: Q04DX003 (ip), vehicle: Klucel (hydroxypropylcellulose) (HPC)) is reported as 2 of 6 and the survivor count (T/C endpoint: mean survival time, dose: 400.0 mg/kg/injection, schedule: Q04DX003 (ip), vehicle: Klucel (hydroxypropylcellulose) (HPC)) is reported as 0 of 6.

`CC(=O)CC(=O)NCCCN1CCCCC1` was tested, and the survivor count [3] was 3 of 6, the survivor count (T/C endpoint: mean survival time, dose: 100.0 mg/kg/injection, schedule: Q04DX003 (ip), vehicle: saline with Tween-80) was 0 of 6 and the survivor count (T/C endpoint: mean survival time, dose: 200.0 mg/kg/injection, schedule: Q04DX003 (ip), vehicle: saline with Tween-80) was 0 of 6.

`CN(C)/N=N/c1ccn[nH]1` was tested, and the survivor count (T/C endpoint: mean survival time, dose: 100.0 mg/kg/injection, schedule: Q01DX005 (ip), vehicle: saline) was 3 of 3 and the survivor count (T/C endpoint: mean survival time, dose: 200.0 mg/kg/injection, schedule: Q01DX005 (ip), vehicle: saline) was 0 of 3.

In the case of `CS(=O)(=O)OCCCN(CCCOS(C)(=O)=O)c1ccc(C=Nc2ccc(-c3csc(COc4ccc(Br)cc4)n3)cc2)cc1`, the survivor count [1] is reported as 5 of 6.
